Assay results reported in US8088401B2, “Composite material comprising a porous semiconductor impregnated with an organic substance” (Psimedica Limited, priority 2003, dated 2012).
At least one compound was matched to its structure with a doubt left.

Test: Gravimetric loading of porous silicon p+ membrane with beneficial organic substance
Assay type: physicochemical
Details: mesoporous p+ silicon membrane, porosity 63%; for w/w loading (weight gain after drug loading and washing): melt, heated solution or rotary evaporation loading
Experimental: The porous membranes were prepared and loaded with beneficial substance according to the following general method:—
A 3 inch diameter p+ wafer (5-15 milli ohm cm) was made mesoporous in a 50:50 by volume mixture of 40 wt % HF and ethanol by anodisation at 35 mA/cm^2 for 90 minutes. […] The membrane was then broken into flakes of weight in the range 10-60 mg for gravimetric and EDX studies of beneficial substance incorporation.
Loading was performed on two similar porous silicon (p+) membranes.
The pore volume available in the porous silicon membrane that can be occupied by the drug is calculated as follows: […]

Compound | pore volume available occupied by the drug, given as value/drug density | w/w loading (weight gain after drug loading and washing) [% w/w]
C[C@@H]1C[C@H]2[C@@H]3CCC4=CC(=O)C=C[C@]4(C)[C@@]3(F)[C@@H](O)C[C@]2(C)[C@@]1(O)C(=O)CO [Dexamethasone] | 60.14 /drug density % | 31.52
CO[C@H]1/C=C/O[C@@]2(C)Oc3c(C)c(O)c4c(O)c(c(/C=N/N5CCN(C)CC5)c(O)c4c3C2=O)NC(=O)/C(C)=C\C=C\[C@H](C)[C@H](O)[C@@H](C)[C@@H](O)[C@@H](C)[C@H](OC(C)=O)[C@@H]1C [Rifamnicin] | – | 19
